From the supplement of paper PMC6411743 come the findings set out here.

Protein sequences, listed by entry. Tags and fused reporters are not part of them. Lines headed by an entry give the natural chain unless they say otherwise; changes in a name come on top.
UniProt Q4LE39: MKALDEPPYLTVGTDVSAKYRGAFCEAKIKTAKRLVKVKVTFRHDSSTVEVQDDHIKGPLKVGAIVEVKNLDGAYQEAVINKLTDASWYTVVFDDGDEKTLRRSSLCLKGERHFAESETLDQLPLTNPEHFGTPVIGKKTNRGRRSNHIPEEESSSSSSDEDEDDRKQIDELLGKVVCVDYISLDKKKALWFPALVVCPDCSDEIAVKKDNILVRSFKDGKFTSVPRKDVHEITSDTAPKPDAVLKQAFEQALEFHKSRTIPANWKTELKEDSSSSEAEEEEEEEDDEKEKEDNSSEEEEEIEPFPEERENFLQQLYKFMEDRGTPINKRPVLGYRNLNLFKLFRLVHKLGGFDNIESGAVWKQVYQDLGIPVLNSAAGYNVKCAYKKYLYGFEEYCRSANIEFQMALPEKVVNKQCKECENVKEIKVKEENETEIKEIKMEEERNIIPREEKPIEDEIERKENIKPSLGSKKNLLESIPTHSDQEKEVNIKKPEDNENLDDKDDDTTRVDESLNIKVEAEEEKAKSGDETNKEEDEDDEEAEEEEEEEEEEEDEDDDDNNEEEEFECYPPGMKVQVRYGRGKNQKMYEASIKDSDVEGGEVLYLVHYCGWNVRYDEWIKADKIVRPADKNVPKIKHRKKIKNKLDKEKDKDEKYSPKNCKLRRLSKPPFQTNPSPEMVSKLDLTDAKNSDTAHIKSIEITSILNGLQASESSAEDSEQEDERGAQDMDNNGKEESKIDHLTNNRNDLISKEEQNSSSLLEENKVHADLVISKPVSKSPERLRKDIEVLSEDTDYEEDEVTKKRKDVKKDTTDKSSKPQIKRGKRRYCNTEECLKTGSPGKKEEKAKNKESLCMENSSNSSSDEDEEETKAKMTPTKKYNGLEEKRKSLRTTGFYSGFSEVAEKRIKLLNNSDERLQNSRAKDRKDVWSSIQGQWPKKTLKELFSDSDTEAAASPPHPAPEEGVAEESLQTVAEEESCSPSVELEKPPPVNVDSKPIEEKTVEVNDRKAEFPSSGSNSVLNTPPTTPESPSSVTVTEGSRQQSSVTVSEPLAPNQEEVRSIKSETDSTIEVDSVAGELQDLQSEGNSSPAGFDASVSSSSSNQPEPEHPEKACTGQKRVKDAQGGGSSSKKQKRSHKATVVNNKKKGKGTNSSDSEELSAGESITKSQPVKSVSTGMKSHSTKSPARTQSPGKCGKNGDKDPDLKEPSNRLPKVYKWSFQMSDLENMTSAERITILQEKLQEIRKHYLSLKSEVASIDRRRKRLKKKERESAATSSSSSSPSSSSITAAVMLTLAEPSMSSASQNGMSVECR
UniProt Q9BZJ0: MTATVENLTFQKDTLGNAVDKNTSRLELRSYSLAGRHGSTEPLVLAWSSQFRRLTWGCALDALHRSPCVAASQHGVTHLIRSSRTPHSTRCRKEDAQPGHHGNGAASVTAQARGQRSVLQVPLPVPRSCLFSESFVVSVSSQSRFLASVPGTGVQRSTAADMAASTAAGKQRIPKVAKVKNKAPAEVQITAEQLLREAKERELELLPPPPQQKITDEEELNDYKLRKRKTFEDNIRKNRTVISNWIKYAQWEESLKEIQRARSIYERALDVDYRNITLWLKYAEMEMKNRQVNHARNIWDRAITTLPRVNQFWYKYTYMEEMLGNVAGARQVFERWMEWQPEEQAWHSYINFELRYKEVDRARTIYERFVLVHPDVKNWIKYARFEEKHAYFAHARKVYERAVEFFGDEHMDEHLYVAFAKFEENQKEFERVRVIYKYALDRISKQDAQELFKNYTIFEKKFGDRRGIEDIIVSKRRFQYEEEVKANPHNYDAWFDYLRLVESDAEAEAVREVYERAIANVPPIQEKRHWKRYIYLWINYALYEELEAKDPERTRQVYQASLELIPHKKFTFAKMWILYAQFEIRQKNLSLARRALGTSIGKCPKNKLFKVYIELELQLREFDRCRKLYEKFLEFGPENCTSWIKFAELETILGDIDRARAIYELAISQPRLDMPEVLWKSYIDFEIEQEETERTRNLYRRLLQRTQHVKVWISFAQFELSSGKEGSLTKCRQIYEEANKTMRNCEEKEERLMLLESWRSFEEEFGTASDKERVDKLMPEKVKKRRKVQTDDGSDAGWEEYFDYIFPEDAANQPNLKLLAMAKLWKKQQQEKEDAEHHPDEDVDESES
UniProt Q5JTH9: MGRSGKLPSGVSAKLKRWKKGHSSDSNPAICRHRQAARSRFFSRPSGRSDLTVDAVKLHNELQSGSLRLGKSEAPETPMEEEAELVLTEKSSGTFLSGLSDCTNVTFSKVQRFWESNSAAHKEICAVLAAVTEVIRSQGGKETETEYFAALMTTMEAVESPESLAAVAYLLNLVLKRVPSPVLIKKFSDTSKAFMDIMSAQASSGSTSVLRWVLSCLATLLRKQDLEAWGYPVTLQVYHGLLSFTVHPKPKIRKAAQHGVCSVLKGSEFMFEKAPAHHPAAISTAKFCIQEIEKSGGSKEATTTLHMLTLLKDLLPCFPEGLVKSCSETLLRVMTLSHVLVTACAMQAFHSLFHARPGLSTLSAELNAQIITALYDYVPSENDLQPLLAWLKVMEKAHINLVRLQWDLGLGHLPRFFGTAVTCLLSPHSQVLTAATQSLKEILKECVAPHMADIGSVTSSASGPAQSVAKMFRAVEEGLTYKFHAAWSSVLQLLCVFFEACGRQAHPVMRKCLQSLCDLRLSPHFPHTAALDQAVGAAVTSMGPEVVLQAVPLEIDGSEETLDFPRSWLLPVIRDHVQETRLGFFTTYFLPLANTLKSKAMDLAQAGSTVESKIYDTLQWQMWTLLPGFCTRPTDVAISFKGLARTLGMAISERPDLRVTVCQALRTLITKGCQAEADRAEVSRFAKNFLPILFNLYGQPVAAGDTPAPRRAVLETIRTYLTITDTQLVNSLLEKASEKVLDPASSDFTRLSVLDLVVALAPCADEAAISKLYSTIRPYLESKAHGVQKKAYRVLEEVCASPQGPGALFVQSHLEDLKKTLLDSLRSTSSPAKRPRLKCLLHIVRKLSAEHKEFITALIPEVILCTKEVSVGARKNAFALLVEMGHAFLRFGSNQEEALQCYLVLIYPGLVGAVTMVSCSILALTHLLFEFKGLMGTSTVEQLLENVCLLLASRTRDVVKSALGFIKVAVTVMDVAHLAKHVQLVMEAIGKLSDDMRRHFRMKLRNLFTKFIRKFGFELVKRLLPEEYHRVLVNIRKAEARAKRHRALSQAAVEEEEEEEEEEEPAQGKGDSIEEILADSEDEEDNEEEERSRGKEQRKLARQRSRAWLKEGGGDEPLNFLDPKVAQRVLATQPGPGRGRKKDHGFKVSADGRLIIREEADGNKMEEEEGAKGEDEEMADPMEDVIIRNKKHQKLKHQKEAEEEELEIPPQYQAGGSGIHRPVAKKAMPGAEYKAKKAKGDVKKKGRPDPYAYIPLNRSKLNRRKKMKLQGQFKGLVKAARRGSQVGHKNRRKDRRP
UniProt Q15459: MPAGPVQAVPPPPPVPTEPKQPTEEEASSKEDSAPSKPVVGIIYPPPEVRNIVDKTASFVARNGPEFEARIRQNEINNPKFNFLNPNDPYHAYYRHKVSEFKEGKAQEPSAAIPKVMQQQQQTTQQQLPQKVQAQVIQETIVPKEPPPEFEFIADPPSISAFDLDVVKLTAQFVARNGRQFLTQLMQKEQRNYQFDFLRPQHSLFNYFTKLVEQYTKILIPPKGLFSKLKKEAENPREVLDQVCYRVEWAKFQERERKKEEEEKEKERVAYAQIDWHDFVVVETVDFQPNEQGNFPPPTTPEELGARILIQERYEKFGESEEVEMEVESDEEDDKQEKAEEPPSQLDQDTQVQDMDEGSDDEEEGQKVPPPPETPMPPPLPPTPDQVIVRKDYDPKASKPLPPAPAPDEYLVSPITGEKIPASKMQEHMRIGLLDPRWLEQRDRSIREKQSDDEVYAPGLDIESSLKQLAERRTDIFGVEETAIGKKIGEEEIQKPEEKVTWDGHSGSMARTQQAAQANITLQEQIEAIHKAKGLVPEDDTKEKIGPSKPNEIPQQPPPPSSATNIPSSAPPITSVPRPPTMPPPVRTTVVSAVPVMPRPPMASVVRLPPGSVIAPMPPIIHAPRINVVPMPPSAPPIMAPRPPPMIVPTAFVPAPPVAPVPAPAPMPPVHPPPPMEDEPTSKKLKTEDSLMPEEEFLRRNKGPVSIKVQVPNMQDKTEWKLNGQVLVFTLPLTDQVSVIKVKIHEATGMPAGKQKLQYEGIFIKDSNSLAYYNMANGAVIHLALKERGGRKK
UniProt Q5TA50: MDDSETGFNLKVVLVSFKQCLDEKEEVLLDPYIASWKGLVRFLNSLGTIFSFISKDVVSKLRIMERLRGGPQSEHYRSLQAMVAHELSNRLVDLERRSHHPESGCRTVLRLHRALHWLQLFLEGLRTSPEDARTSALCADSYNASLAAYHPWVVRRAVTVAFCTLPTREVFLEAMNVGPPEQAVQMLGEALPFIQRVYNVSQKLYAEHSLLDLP

Compound in the assay: Nc1nc2c(ncn2[C@@H]2O[C@H](COP(=O)(O)OP(=O)(O)OP(=O)(O)O)[C@@H](O)[C@H]2O)c(=O)[nH]1 [guanosine triphosphate]
Description: NP40-soluble protein abundance relative to vehicle (solubility fold change) (ratio); higher = more soluble protein in presence of GTP. As for the experimental part:
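Solubility proteome profiling in Jurkat crude lysate. Lysate was treated with Mg-GTP (0.1-10 mM) for 10 min at room temperature and 3 min at 37 °C, then solubilised with 0.8% NP40 and benzonase, followed by ultracentrifugation. Proteins were quantified by TMT10 LC-MS/MS; the value is the NP40-soluble abundance relative to the NP40-processed vehicle, from 3 independent experiments.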

± gives the standard deviation of the averaged measurements. This is one part of the list.

Consider ARID4B (UniProt Q4LE39), for which the NP40-soluble protein abundance turned out to be 1 ± 0.027 (concentration: 0.1mM); 1.01 ± 0.022 (concentration: 0.5mM); 1.06 ± 0.017 (concentration: 1mM); 1.05 ± 0.02 (concentration: 2mM); 1.074 ± 0.0032 (concentration: 4mM); 1.08 ± 0.018 (concentration: 6mM). The NP40-soluble protein abundance worked out at 1.13 ± 0.098 (concentration: 8mM) and 1.13 ± 0.074 (concentration: 10mM).

For “Q5JY65 and related entries (UniProt Q9BZJ0)”, the NP40-soluble protein abundance runs as follows: (concentration: 0.1mM) 1.12 ± 0.048; (concentration: 0.5mM) 1.07 ± 0.063; (concentration: 1mM) 1.06 ± 0.042; (concentration: 2mM) 1.04 ± 0.059; (concentration: 4mM) 1.03 ± 0.068; (concentration: 6mM) 0.963 ± 0.068. Moreover, the NP40-soluble protein abundance by setting is: (concentration: 8mM) 1.02 ± 0.1; (concentration: 10mM) 0.917 ± 0.041.

On to UniProt Q5JTH9 and related entries, for which the NP40-soluble protein abundance by setting is: (concentration: 0.1mM) 1.08 ± 0.053; (concentration: 0.5mM) 1.08 ± 0.081; (concentration: 1mM) 1.09 ± 0.091; (concentration: 2mM) 1.1 ± 0.15; (concentration: 4mM) 1.11 ± 0.14; (concentration: 6mM) 1.08 ± 0.16. The NP40-soluble protein abundance reads like this: (concentration: 8mM) 1.08 ± 0.15; (concentration: 10mM) 1.11 ± 0.15.

Take SF3A1 (UniProt Q15459): the NP40-soluble protein abundance (concentration: 0.1mM) amounted to 0.984 ± 0.028; the NP40-soluble protein abundance (concentration: 0.5mM) was determined as 1.03 ± 0.043; the NP40-soluble protein abundance (concentration: 1mM) came out at 1.05 ± 0.045; the NP40-soluble protein abundance (concentration: 2mM) turned out to be 1.03 ± 0.053; the NP40-soluble protein abundance (concentration: 4mM) turned out to be 1.04 ± 0.034; the NP40-soluble protein abundance (concentration: 6mM) was determined as 1.05 ± 0.047. Besides, the NP40-soluble protein abundance (concentration: 8mM) came to 1.09 ± 0.084 and the NP40-soluble protein abundance (concentration: 10mM) is 1.07 ± 0.073.

CPTP (UniProt Q5TA50): the NP40-soluble protein abundance reads like this: (concentration: 0.1mM) 1.04 ± 0.11; (concentration: 0.5mM) 0.965 ± 0.064; (concentration: 1mM) 0.85 ± 0.071; (concentration: 2mM) 0.947 ± 0.073; (concentration: 4mM) 0.9512 ± 0.0023; (concentration: 6mM) 0.934 ± 0.071. Also, the NP40-soluble protein abundance is 0.843 ± 0.035 (concentration: 8mM) and 0.866 ± 0.032 (concentration: 10mM).
